Measurements published in paper PMC12040169 (PLOS Biology, 2025).
The list shows a part of the results.

Tested on: T1, CTL2-GFP (C. trachomatis L2/434/Bu, GFP-expressing)
T1 construct: L2/434/Bu, GFP-expressing
Set-up: species or system HeLa; Intracellular C. trachomatis growth in HeLa cells, bulk GFP fluorescence relative to DMSO
Details: bulk GFP, single well; 28.5 h, 10 µM; inhibitor

| SMILES | % of control remaining [%] |
| --- | --- |
| O=C(O)C1(Oc2ccc3ncccc3c2)CCN(CC2CCOC2)CC1 (centres unmarked) [CBK307336] | 139.76 |
| Cc1cccc(OCC(=O)NC(=S)Nc2ccccc2N2CCCCC2)c1C [CBK266298] | 141.69 |
| Cc1ccc2oc(C(=O)Nc3ccc(-n4cnnn4)cc3)c(C)c2c1 [CBK287804] | 105.087 |
| Cc1ccc2[nH]c3c(c2c1)CCCC3NCC(O)Cc1ccccc1 (centres unmarked) [CBK263154] | 107.637 |
| CCOC(=O)CC(=O)CSc1nc(C)cc(-c2cccnc2)c1C#N [CBK267460] | 160.885 |
| Cc1nccn1-c1ccc(NC(=O)C2CC(=O)N(C3CCCC3)C2)cc1F (centres unmarked) [CBK298286] | 158.255 |
| CC(COC(C)(C)C)Oc1nccnc1OCc1ccc(Cl)c(Cl)c1 (centres unmarked) [CBK161607] | 141.629 |
| Cn1cc(NC(=O)N2CCCN(Cc3ccccn3)CC2)nn1 [CBK307034] | 105.87 |
| COc1ccccc1Cn1ncc2c1CCCC2NC(=O)C1CCC1 (centres unmarked) [CBK282895] | 85.5675 |
| Cc1cc(C[C@@H]2COC[C@H]2NCCc2ccccc2)on1 [CBK284882] | 127.905 |
| O=C(C1CCCC1)N1CCC(c2nnc3n2CCCCC3)CC1 [CBK284612] | 145.404 |
| COc1ccc(CN2CCCN(C(=O)c3ccnc(Cl)c3)CC2)cc1 [CBK305364] | 117.298 |
| Nc1nc2c(nc(Br)n2[C@H]2C[C@@H](O)[C@@H](CO)O2)c(=O)[nH]1 [CBK201333] | 197.745 |
| CSc1c(C#N)c(-c2cc(C(C)(C)C)on2)nn1C [CBK006360] | 126.04 |
| CN1CCN(c2cc(-c3cccc(CO)c3)nc3ccnn23)CC1 [CBK037099] | 158.133 |
| c1ccc(CCNc2nccnc2-c2ccoc2)nc1 [CBK036790] | 200.125 |
| O=C1CC[C@@H](NCc2ccccc2O)[C@H](c2cc(F)cc(F)c2)N1 [CBK283126] | 86.5702 |
| COc1ccccc1-c1nnc(SC)n1-c1ccc(C)cc1 [CBK076670] | 97.1202 |
| CN1CCN(C(=O)c2ccc(Cl)cc2)CC1 [CBK126096] | 140.574 |
| COc1ccc(C(=O)N[C@H]2CCN3C(=O)c4ccc(Cl)cc4NC(=O)[C@@H]3C2)cc1 [CBK289564] | 131.483 |
| NC(=O)c1c(NC(=O)c2ccc(S(=O)(=O)N3CCCC3)cc2)sc2c1CCCC2 [CBK262486] | 93.0509 |
| COc1ccc2c(c1)cc(C(=O)NCCN1CCCCC1CO)n2C (centres unmarked) [CBK306621] | 108.396 |
| CC1=CC2=NC3(CCC3)[C@@H]3C[C@@H](O)[C@@H](O)[C@@H]3N2O1 [CBK303257] | 181.11 |
| Cc1cc(C)n(C(C)CC(=O)N2CCN(C)CC2c2ccccc2)n1 (centres unmarked) [CBK282014] | 144.148 |
| CCOc1ccc(CNc2ccc(C3c4ccsc4CCN3C(C)=O)cc2)cc1 (centres unmarked) [CBK286451] | 118.422 |
| Cn1cc(-c2nc(C(=O)NCc3ccnc(N4CCCC4)c3)cs2)cn1 [CBK305666] | 121.95 |
| CCOC(=O)Cc1ccc(Nc2cc(-c3ccc(N(C)C)cc3)ncn2)cc1 [CBK090712] | 150.425 |

At a glance, 7 of the compounds above:

| SMILES | % of control remaining [%] |
| --- | --- |
| O=C(O)C1(Oc2ccc3ncccc3c2)CCN(CC2CCOC2)CC1 (centres unmarked) [CBK307336] | 139.76 |
| Cc1cccc(OCC(=O)NC(=S)Nc2ccccc2N2CCCCC2)c1C [CBK266298] | 141.69 |
| Cc1ccc2oc(C(=O)Nc3ccc(-n4cnnn4)cc3)c(C)c2c1 [CBK287804] | 105.087 |
| Cc1ccc2[nH]c3c(c2c1)CCCC3NCC(O)Cc1ccccc1 (centres unmarked) [CBK263154] | 107.637 |
| CCOC(=O)CC(=O)CSc1nc(C)cc(-c2cccnc2)c1C#N [CBK267460] | 160.885 |
| Cc1nccn1-c1ccc(NC(=O)C2CC(=O)N(C3CCCC3)C2)cc1F (centres unmarked) [CBK298286] | 158.255 |
| CC(COC(C)(C)C)Oc1nccnc1OCc1ccc(Cl)c(Cl)c1 (centres unmarked) [CBK161607] | 141.629 |

Later entries.

| SMILES | % of control remaining [%] |
| --- | --- |
| Cc1ccc(CSCCNS(=O)(=O)c2ccc3ccccc3c2)cc1 [CBK268048] | 102.61 |
| Cc1ccc(SC(C)C(=O)NCCCN2CCOCC2)cc1 (centres unmarked) [CBK268624] | 103.729 |
| Cc1[nH]c2ccc(CNC(=O)NC3CCCc4cn[nH]c43)cc2c1C (centres unmarked) [CBK305488] | 152.056 |
| Nc1nc(OCc2cccs2)cnc1-c1ccsc1 [CBK145161] | 107.986 |
| O=C(/C=C(\c1ccccc1)n1cncn1)c1ccc(Cl)cc1 [CBK262089] | 112.697 |
| COc1ccc(-c2nnc(SCC(=O)NN)n2-c2ccccc2)cc1 [CBK263157] | 119.835 |
| O=C(O)c1cccc(NS(=O)(=O)c2cc3ccccc3o2)c1 [CBK200423] | 125.533 |
| CCC(C)NC(=O)Cn1c(C2CCOCC2)cc2cccnc21 (centres unmarked) [CBK285390] | 104.349 |
| O=C(O)CCC(=O)Nc1ccc(NC(=O)C2CCCCC2)c(Cl)c1 [CBK268867] | 166.26 |
| CCc1n[nH]c(SCc2ccc(Br)cc2)n1 [CBK265221] | 88.9293 |
| CC(C)(C)C1=CC2=NC3(CCC3)C3C[C@@](C)(O)[C@@H](O)[C@@H]3N2O1 (some centres unmarked) [CBK303263] | 109.231 |
| COc1ccccc1C(=O)NCCNC(=O)c1ccccn1 [CBK269174] | 117.999 |
| O=C(O)CN1C(=O)[C@@H]2Cc3ccccc3CN2C1=O [CBK202728] | 132.573 |
| N#Cc1ccc(CN2CCC(NC3CCCn4nccc43)C2=O)cc1 (centres unmarked) [CBK304770] | 109.828 |
| O=C(c1ccc(C#CC2(O)CCCCC2)cc1)N1CCN(Cc2ccccc2)CC1 [CBK263094] | 100 |
| O=C(O)CC(NS(=O)(=O)c1cccc([N+](=O)[O-])c1)c1ccccc1 (centres unmarked) [CBK262641] | 115.28 |
| COc1c(Br)cc(/C=C2\SC(=O)NC2=O)cc1Br [CBK102455] | 100 |
| CCOc1ccc2ccccc2c1CNCCc1ccc(S(N)(=O)=O)cc1 [CBK268732C] | 134.64 |
| CCN(CC)C(=O)CN1C(=O)N2CCCN=C2c2ccccc21 [CBK284398] | 142.827 |
| COc1ccc2c(c1OC)C(=O)N(c1cccc(/C=C/C(=O)O)c1)C2 [CBK109932] | 141.491 |
| O=C(O)CSc1ccc(Oc2ccc(SCC(=O)O)cc2)cc1 [CBK261254] | 100 |
| c1ccc(CCN2CCC(N3CCOCC3)CC2)cc1 [CBK261928] | 124.798 |
| O=C(NCc1csc2c1CCCC2)N1CCCC(c2cc(O)ncn2)C1 (centres unmarked) [CBK306705] | 103.606 |
| CCc1cc(=O)oc2cc(OCC(=O)O)c(Cl)cc12 [CBK265182] | 100 |
| NC(=O)CN1CCC(Oc2nccnc2OCc2ccc(Cl)c(Cl)c2)CC1 [CBK083110] | 103.168 |
| CN1CCN(C(=O)c2sccc2NS(=O)(=O)c2ccc3ccccc3c2)CC1 [CBK004631] | 118.561 |
| Cc1ccc(S(=O)(=O)Nc2cccc(C(=O)N3CCN(C)CC3)c2)cc1[N+](=O)[O-] [CBK038976] | 120.157 |

| SMILES | % of control remaining [%] |
| --- | --- |
| O=C(CSc1n[nH]c(=O)n1Cc1ccccc1)NCc1ccc(-c2ccc(Cl)cc2)o1 [CBK296963] | 68.9195 |
| CCOC(=O)N1CCN(S(=O)(=O)c2ccc3c(c2)oc(=O)n3CC)CC1 [CBK305055] | 105.84 |
| O=C(CCc1ccccc1)Nc1cccc(N2C(=O)C3C4c5ccccc5C(c5ccccc54)C3C2=O)c1 (centres unmarked) [CBK265409] | 100 |
| N#CCCn1cc(C(=O)N2CCOCC2)c(-c2cccs2)n1 [CBK306195] | 94.1725 |
| O=C1/C(=C/NNc2nc3ccccc3s2)Sc2ccccc21 [CBK261627] | 74.4787 |
| CCC(CC)C(=O)N1CCCC1c1n[nH]cc1-c1ccncc1 (centres unmarked) [CBK283467] | 120.71 |
| CCOC(=O)CC1=C(C(=O)OCC)C(c2ccccc2C(F)(F)F)C(C#N)=C(N)O1 (centres unmarked) [CBK262710] | 77.015 |
| CC(NC(=O)c1cc2ccc(N(C)C)cc2[nH]1)c1ccccn1 (centres unmarked) [CBK281821] | 134.786 |
| Cc1cc(C)n(CC(=O)NC(CC(=O)O)c2ccccc2Cl)n1 (centres unmarked) [CBK305695] | 108.351 |
| CC(=O)N[C@H]1C[C@@H](Cc2cc(CCO)on2)C1(C)C [CBK289243] | 125.915 |
| CCOC(=O)C1=C(C)Nc2nc(C)nc(Cl)c2O1 [CBK021504] | 178.135 |
| Cn1cc(-c2nccnc2OCCOc2ccccc2)cn1 [CBK107080] | 100 |
| Cc1nc2ccc(C(=O)N(C)Cc3ccco3)cn2c1N(C)C=O [CBK145482] | 106.133 |
| COc1nccnc1-c1ccc(C)c(C)c1 [CBK106853] | 125.796 |
| CN(C)Cc1cc(C[C@@H]2C[C@H](NC(=O)c3ccnc(Cl)c3)C2(C)C)no1 [CBK289311] | 121.344 |
| O=S(=O)(Cc1cc(Cl)ccc1F)N1CCN(CCO)CC1 [CBK306385] | 116.938 |
| O=C(Nc1ccc(N2CCN(Cc3ccccc3)CC2)cc1)c1nc[nH]n1 [CBK266960] | 115.45 |
| C=CCn1c(SCC(=O)Nc2cccc(C(F)(F)F)c2)nnc1C12CC3CC(CC(C3)C1)C2 [CBK266054] | 118.598 |
| Nc1nonc1-n1cc(CN2CCCCC2)nn1 [CBK307044] | 146.874 |
| OCCCc1nc2ccccc2n1CCOc1ccccc1 [CBK297728] | 108.138 |
| Cc1cccc2cc3c(nc12)OCCN(C)C3 [CBK285192] | 114.627 |
| CC1CN(C(=O)CCn2c(C(F)F)cc3cccnc32)CC(C)O1 (centres unmarked) [CBK284984] | 145.629 |
| COc1ccc(C(=O)Nc2ccccc2C(=O)Nc2cccc([N+](=O)[O-])c2)cc1 [CBK265894] | 128.767 |
| O=C(O)c1cccc(-c2cncc(NCCCN3CCOCC3)n2)c1 [CBK037850] | 138.703 |
| CCCCC(=O)N(C)c1c(C)nc2ccc(C(=O)Nc3ccc(C(N)=O)cc3)cn12 [CBK147066] | 81.9954 |
| COC(=O)c1c(NS(=O)(=O)c2cccc(Cl)c2)csc1C [CBK026678] | 112.678 |
